No constants are given. Whether binding was seen depends on the method and setting. In cells and extracts the contact can be indirect. Some results given as binding are weak or reduced against the parent protein; the word gives no strength.
Biological target: T1, Unc-51-like kinase 1 (ULK1) (human (endogenous in HEL, SET-2, KT-1, U937)) (UniProt O75385)
T1 sequence: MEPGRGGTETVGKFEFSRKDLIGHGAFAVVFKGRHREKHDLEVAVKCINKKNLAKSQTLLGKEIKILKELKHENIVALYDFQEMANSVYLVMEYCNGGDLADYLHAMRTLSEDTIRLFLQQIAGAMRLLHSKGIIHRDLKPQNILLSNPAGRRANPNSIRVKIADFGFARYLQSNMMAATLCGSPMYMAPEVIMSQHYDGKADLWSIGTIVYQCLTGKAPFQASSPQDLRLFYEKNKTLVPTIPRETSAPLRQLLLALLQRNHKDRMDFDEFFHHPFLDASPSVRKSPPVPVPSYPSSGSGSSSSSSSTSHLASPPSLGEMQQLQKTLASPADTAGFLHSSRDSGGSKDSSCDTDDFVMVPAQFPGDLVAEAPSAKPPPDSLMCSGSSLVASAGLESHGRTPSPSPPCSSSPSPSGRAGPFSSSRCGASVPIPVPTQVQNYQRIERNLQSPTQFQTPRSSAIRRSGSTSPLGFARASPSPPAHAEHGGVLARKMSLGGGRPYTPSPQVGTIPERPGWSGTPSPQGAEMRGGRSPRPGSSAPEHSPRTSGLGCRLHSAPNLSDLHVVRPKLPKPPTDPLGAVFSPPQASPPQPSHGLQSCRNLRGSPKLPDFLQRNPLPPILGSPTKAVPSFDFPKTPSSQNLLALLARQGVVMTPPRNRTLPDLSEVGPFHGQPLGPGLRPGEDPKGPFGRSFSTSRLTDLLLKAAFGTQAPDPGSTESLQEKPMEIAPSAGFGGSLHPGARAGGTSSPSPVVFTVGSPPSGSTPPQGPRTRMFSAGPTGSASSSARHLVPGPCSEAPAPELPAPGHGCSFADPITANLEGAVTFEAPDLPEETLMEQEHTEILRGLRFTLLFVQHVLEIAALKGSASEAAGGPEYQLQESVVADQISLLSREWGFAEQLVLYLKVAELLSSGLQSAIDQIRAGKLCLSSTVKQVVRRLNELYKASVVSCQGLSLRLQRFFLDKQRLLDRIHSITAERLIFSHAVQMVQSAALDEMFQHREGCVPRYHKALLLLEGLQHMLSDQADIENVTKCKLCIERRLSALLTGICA
Assay: co-IP; endogenous protein-ULK1 complexes precipitated from 500 ug total cell lysate with anti-ULK1 (D8H5) antibody and protein G Sepharose, overnight at 4 °C; NP-40 buffer (20 mM Hepes pH 7.4, 180 mM KCl, 0.2 mM EGTA, 10% glycerol, 0.1% NP-40); cells untreated or treated with IFNα or IFNβ (10^4 IU/mL) for 10 min; immunoblot

Sequences of proteins named here, by UniProt entry; tags and fusion partners are left off. A change or cut given only in a name is not applied to a line headed by its entry.
UniProt Q05655: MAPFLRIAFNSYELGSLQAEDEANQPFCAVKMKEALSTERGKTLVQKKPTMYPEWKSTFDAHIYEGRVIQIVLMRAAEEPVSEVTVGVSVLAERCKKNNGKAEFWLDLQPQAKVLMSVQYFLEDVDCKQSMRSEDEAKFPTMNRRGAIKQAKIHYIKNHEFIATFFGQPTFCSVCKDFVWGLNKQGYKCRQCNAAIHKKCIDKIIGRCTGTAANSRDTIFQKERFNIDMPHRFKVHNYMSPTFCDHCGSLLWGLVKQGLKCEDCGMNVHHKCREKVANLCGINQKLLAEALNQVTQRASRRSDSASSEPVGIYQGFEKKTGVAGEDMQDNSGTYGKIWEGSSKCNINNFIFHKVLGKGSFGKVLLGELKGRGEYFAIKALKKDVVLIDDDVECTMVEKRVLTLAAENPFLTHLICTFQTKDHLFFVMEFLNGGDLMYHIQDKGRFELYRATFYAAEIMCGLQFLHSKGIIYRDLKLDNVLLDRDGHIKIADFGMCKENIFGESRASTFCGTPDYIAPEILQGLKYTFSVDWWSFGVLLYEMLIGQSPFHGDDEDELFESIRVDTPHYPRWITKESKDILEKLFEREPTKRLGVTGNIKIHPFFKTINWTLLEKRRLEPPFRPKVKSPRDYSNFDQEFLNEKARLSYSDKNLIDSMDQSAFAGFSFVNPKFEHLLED

protein kinase C-delta (PKCδ) (from UniProt Q05655 1-676)
binding: binds

Source: publication PMC8975834
